Data published in paper PMC10070108.
No constants are given. Whether binding was seen depends on the method and setting. Binding seen in cells or lysates may run through a third protein. Some entries that bind do so weakly or less than the wild type.

Chains of the proteins cited; added tags and fusions are not shown.
UniProt E9Q557: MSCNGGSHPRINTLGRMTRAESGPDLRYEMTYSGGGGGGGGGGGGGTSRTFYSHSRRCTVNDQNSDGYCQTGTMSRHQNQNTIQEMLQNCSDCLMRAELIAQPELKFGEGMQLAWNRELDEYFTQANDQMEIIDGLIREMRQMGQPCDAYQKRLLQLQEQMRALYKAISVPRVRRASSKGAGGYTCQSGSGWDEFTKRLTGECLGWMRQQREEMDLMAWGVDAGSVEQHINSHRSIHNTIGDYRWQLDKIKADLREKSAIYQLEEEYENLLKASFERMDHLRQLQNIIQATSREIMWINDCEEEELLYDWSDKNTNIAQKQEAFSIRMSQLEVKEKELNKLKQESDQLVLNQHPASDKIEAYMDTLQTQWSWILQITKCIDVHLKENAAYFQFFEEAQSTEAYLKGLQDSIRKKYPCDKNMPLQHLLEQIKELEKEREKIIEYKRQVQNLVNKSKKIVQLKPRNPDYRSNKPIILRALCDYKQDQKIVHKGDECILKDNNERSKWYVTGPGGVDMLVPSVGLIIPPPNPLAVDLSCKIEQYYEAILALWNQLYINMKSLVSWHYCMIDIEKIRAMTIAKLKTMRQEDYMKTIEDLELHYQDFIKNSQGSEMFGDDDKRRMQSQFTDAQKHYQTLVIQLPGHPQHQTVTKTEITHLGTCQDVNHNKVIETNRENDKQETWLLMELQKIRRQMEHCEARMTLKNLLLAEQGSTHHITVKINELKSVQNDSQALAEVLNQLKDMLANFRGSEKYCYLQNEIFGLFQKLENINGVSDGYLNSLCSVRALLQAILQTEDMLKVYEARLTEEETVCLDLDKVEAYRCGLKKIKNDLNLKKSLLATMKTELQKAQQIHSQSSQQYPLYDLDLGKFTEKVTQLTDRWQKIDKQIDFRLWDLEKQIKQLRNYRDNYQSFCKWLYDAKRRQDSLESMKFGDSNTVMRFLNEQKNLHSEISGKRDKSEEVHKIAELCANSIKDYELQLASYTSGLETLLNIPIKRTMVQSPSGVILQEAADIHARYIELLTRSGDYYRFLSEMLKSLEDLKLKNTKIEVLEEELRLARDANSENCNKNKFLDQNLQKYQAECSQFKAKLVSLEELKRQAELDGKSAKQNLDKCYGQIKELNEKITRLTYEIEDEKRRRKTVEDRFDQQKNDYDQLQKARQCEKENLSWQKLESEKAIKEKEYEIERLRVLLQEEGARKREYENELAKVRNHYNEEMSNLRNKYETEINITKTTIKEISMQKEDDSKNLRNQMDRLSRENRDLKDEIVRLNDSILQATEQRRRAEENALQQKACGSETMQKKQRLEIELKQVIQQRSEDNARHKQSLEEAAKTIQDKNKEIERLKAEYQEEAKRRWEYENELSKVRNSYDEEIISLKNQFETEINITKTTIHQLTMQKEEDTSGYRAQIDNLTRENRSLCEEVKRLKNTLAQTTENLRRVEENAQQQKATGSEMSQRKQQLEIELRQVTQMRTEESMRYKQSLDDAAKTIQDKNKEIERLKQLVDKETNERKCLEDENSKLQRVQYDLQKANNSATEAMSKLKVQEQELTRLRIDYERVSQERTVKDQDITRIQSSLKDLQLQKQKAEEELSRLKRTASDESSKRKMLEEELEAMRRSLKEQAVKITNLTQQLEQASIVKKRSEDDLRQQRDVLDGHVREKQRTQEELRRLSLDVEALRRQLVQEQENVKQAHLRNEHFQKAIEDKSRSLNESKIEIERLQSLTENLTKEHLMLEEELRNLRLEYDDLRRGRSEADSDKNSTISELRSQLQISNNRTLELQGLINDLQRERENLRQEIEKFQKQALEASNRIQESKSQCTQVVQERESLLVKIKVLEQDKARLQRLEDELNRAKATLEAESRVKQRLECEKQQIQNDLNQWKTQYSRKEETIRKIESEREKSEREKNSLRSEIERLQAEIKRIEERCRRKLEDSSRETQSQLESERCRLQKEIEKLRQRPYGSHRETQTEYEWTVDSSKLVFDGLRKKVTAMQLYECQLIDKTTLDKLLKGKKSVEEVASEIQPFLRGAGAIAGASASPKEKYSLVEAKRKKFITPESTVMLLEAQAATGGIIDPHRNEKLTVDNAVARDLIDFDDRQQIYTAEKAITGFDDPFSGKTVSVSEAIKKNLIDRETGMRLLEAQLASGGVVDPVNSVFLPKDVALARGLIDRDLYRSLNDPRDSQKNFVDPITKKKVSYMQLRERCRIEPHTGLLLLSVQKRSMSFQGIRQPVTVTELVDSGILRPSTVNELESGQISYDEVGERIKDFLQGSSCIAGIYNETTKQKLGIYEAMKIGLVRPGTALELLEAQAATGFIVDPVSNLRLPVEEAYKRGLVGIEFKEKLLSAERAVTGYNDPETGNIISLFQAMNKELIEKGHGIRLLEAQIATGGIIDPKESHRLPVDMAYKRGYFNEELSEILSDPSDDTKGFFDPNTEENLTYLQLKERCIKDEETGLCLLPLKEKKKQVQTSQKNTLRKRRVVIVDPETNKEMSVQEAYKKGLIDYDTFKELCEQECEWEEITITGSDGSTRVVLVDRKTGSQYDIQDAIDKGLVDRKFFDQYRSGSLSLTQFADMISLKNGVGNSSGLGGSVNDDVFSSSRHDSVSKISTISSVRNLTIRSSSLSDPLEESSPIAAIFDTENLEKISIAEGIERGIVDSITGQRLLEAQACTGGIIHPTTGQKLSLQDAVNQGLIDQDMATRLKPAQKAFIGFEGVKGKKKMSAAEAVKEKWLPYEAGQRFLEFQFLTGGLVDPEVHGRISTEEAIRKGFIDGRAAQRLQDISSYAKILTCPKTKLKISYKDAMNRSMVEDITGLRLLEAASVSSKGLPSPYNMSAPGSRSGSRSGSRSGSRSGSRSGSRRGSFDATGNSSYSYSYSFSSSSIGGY

What was measured:
[1] = target: desmoplakin (mouse (endogenous in HL-1)) (UniProt E9Q557); test: co-IP; DP immunoprecipitated from HL-1 lysates (RIPA lysis buffer); 1 ug antibody to 1.5 mg lysate overnight at 4°C, Protein G Dynabeads, washes incl. 2 M urea buffer; immunoblots for EGFR, DSG2, PKP2, PG; cells treated with vehicle, erlotinib or PP2 (no significant changes)
[2] = target: T1, desmoglein 2 (mouse (endogenous in HL-1)) (UniProt O55111); test: co-IP; DSG2 immunoprecipitated from HL-1 lysates (RIPA lysis buffer); 1 ug antibody to 1.5 mg lysate overnight at 4°C, Protein G Dynabeads, washes incl. 2 M urea buffer; immunoblots for EGFR, PG, DP, PKP2; cells with or without erlotinib (complex not altered)
T1 sequence: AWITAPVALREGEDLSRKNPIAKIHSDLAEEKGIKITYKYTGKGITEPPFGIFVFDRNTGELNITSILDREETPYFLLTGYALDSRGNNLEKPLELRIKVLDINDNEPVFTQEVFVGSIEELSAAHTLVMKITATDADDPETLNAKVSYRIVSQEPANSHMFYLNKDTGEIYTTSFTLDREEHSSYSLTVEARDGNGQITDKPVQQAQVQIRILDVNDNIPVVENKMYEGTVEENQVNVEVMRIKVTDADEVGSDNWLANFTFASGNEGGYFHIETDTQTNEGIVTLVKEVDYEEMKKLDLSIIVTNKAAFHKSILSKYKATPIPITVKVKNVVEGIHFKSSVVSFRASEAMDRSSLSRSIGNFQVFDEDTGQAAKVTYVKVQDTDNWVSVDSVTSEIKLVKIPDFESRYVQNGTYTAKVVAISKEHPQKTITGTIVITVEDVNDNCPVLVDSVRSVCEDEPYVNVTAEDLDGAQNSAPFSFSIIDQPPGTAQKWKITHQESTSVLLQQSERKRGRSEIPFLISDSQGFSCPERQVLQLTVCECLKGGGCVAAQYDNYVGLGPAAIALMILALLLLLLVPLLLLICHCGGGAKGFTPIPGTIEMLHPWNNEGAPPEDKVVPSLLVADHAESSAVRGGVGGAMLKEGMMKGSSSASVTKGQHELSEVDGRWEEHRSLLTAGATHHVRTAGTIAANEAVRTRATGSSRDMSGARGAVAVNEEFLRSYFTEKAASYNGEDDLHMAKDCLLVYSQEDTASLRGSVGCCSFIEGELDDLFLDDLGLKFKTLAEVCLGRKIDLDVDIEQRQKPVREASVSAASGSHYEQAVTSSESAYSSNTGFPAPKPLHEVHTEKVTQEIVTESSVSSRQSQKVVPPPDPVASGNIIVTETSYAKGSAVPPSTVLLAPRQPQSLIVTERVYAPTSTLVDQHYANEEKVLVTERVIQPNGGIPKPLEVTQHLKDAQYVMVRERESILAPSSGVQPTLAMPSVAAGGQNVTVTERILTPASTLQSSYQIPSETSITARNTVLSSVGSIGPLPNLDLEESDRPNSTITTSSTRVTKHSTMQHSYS

- binding [1]: binds
- binding [2]: binds
Substance: epidermal growth factor receptor (from UniProt Q01279 25-1210)
